Experimental data reported in ChEMBL document CHEMBL5584316, “Arcopilins: A New Family of Staphylococcus aureus Biofilm Disruptors from the Soil Fungus Arcopilus navicularis” (J Med Chem, 2024).

System: Candida albicans
Assay: Antimicrobial activity against Candida albicans DSM 1665 assessed as inhibition of microbial growth incubated overnight by serial dilution method
Type: functional

NYSTATIN
MIC: 8.3 µg/mL
